From PMC10264414
No constants are given. Whether binding was seen depends on the method and setting. Binding seen in cells or lysates may run through a third protein. Binding calls can cover weak binding; strength is not graded here. For some assays here: Sequences can lack the tags named with a protein.

By UniProt entry, the sequences of proteins in these tests, tags left out.
UniProt P35222: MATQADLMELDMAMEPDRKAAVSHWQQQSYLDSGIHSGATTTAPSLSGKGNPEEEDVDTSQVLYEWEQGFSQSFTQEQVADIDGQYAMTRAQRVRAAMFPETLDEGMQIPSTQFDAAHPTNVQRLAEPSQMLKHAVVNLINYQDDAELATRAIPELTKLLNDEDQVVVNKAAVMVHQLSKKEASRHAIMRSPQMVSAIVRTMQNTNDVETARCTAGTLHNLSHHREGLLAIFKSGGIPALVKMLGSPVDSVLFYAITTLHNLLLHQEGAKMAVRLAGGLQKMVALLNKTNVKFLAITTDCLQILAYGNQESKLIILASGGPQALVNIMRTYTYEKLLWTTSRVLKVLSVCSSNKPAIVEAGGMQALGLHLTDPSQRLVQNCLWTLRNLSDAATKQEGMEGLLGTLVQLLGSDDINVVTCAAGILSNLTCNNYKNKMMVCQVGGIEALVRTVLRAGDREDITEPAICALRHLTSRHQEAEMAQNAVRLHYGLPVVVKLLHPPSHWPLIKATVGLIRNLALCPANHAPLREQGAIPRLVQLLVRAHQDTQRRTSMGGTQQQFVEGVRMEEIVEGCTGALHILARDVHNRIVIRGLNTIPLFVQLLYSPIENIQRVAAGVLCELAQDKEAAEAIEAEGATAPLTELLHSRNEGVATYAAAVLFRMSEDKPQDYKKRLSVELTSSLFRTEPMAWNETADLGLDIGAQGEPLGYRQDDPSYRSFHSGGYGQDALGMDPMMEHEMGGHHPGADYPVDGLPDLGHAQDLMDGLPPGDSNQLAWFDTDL

Assays:
Flag-USP8 full-length = target: T1, Flag-USP8 full-length (UniProt P40818); assay: co-IP; HEK293 cells co-transfected with 2 µg Flag-USP8 and Myc-β-catenin full length or mutants, 24 h, NP-40 lysis buffer, IP with Flag antibody, blot with Myc antibody
T1 sequence: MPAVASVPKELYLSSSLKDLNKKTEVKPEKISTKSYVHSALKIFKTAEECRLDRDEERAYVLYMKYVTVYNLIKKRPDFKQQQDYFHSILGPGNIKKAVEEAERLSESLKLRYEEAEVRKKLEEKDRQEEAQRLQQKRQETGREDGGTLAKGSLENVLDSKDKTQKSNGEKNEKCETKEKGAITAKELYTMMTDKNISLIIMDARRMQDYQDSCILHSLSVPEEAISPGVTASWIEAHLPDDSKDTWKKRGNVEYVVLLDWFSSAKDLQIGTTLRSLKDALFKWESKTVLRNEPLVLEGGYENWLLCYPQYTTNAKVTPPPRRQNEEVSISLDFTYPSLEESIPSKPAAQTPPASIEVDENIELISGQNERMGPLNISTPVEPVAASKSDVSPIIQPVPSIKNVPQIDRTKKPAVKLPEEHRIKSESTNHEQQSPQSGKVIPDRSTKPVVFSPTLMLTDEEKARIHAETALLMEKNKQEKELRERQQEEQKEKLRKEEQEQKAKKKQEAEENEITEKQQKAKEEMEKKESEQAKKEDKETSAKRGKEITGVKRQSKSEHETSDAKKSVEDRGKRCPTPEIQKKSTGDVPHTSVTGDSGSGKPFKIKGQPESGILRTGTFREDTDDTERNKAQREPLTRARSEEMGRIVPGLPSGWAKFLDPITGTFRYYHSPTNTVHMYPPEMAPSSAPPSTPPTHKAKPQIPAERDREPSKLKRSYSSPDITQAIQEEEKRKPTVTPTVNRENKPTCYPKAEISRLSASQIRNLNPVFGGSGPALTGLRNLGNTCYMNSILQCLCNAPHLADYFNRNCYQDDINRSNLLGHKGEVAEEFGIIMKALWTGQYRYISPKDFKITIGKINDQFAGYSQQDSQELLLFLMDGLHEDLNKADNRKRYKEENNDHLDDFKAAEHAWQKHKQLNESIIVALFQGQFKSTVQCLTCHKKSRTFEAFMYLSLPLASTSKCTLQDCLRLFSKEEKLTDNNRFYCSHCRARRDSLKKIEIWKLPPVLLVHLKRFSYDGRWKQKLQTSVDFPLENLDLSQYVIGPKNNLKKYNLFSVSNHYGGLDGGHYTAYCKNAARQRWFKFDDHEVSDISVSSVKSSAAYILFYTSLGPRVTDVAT

[1] = target: Myc-β-catenin full length (UniProt P35222); assay: co-IP; HEK293 cells co-transfected with 2 µg Myc-β-catenin and Flag-USP8 full-length or mutants, 24 h, NP-40 lysis buffer, IP with Myc antibody, blot with Flag antibody

Substance | binding (Flag-USP8 full-length) | binding [1]
Myc-β-catenin deletion mutant, ARM domain (domain or fragment) | binds | –
Flag-USP8 deletion mutant, USP domain (from UniProt P40818) (domain or fragment) | – | binds
